Test results taken from paper PMC3281915, “Integrin β3 Crosstalk with VEGFR Accommodating Tyrosine Phosphorylation as a Regulatory Switch” (PLoS ONE, 2012).
No constants are given. Whether binding was seen depends on the method and setting. Some binding calls cover weakened binding; strength is not graded here.

Amino acid sequences for entries named in this document (tags omitted). Residues count along the entry.
UniProt P05106, residues 742-788: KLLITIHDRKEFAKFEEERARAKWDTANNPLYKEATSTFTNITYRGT

Assays:
[1] = target: 15N-labeled β3MP (mono-Y747-phosphorylated integrin β3 cytoplasmic tail) (human) (UniProt P05106); experiment: NMR titration; 1H-15N HSQC chemical shift titration; unlabeled VpepA titrated into 15N-labeled β3CT; water, 25°C, pH 6.1, β3 30-100 µM; both purified
[2] = target: GST-β3 (integrin β3 cytoplasmic tail coupled to glutathione S-transferase) (human) (UniProt P05106); experiment: transferred NOE (trNOESY) NMR; peptide mixed with GST-β3; 50 mM NaCl, 25 mM Na-phosphate, pH 6.1, 25°C; peptide to protein ratio 50 to 1, peptide 1 mM; both purified

B1: VpepA, synthetic peptide of the thirty membrane proximal residues of the VEGFR2 cytoplasmic domain (peptide)
peptide: LRTVKRANGGELKTGYLSIVMDPDELPLDE
binding [1]: binds weakly

B2: VpepB, synthetic peptide of the membrane proximal region of VEGFR2 (peptide)
peptide: LRTVKRANGGELKTGYLSIV
binding [2]: binds weakly

B3: VpepC, synthetic peptide of the membrane proximal region of VEGFR2 (peptide)
peptide: RANGGELKTGYLSIVMDPD
binding [2]: binds weakly
